PubChem BioAssay AID743454, Peter MacCallum Cancer Centre, 2014
Shown is one part, drawn at random, of about 18,000 deposited reagents. 450 of them (2.5%) count as active. 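Single biological run; no consistent viability z cut-off exists, so the class columns, not z-scores, define the calls.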 A number with no mark means an inactive call.

- Screen: 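Knock-downs lowering viability or raising caspase 3/7 activity in vorinostat-treated resistant cells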 (primary screen)
- System: human HCT116-VR colon cancer cells, selected for vorinostat resistance
- Knock-down reagent: siRNA pool against human genes, 40 nM siRNA pool
- Timing: vorinostat for 24 h, read-out about 72 h after transfection
- Challenge: vorinostat at 2.5 µM final
- Detection: 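Cell viability by CellTiter-Fluor and caspase 3/7 activity by luminescence, each scaled to mock wells per plate, duplicates averaged, then robust z-scored over all plates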
- Scale: viability robust z-score: higher = more viable cells than screen typical; caspase robust z-score: higher = more caspase 3/7 activity than screen typical
- Hit rule: 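Hits are knock-downs in viability class RV1/RV2 or caspase class CA1/CA2, excluding ones that killed cells in the no-drug cell-count arm; hits then retested with single siRNAs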

| gene | viability hit class | caspase hit class | viability robust z-score | caspase robust z-score |
| --- | --- | --- | --- | --- |
| PNPLA7 (patatin like domain 7, lysophospholipase) | no change | no change | 0.32 | 0.79 |
| USP16 (ubiquitin specific peptidase 16) | no change | no change | -0.7 | 0.31 |
| EIF2AK4 (eukaryotic translation initiation factor 2 alpha kinase 4) | no change | no change | -1.01 | 3.55 |
| CASP8 (caspase 8) | no change | no change | 1.64 | -0.82 |
| FANCL (FA complementation group L) | no change | no change | 0.65 | 0.66 |
| KIT (KIT proto-oncogene, receptor tyrosine kinase) | no change | no change | -0.58 | -1.44 |
| FRY (FRY microtubule binding protein) | no change | no change | 0.38 | -0.82 |
| LAIR1 (leukocyte associated immunoglobulin like receptor 1) | no change | no change | 0.57 | -0.53 |
| MRTFB (myocardin related transcription factor B) | no change | no change | -0.12 | 1.93 |
| MSRA (methionine sulfoxide reductase A) | no change | no change | -1.19 | 0.46 |
| TRIM52 (tripartite motif containing 52) | no change | no change | -0.36 | 1.38 |
| RPIA (ribose 5-phosphate isomerase A) | no change | no change | 0.1 | -0.64 |
| KCNA3 (potassium voltage-gated channel subfamily A member 3) | no change | no change | -0.78 | 3.49 |
| ARK2N (arkadia (RNF111) N-terminal like PKA signaling regulator 2N) | no change | no change | 0.8 | -0.31 |
| ADAMDEC1 (ADAM like decysin 1) | no change | no change | -0.03 | 0.3 |
| STARD8 (StAR related lipid transfer domain containing 8) | no change | no change | 1.35 | 2.14 |
| ING5 (inhibitor of growth family member 5) | no change | no change | -0.46 | 0.06 |
| CCDC70 (coiled-coil domain containing 70) | no change | no change | 0.55 | 1.3 |
| CT45A1 (cancer/testis antigen family 45 member A1) | no change | no change | 0.05 | -0.63 |
| PSAP (prosaposin) | no change | no change | -0.24 | 1.15 |
| DNAJB11 (DnaJ heat shock protein family (Hsp40) member B11) | no change | no change | -0.26 | -1.25 |
| UBTF (upstream binding transcription factor) | no change | no change | 0.85 | 0.28 |
| PRPH2 (peripherin 2) | no change | no change | 0.02 | -0.84 |

Part of the list above, reformatted:
gene	viability hit class	caspase hit class	viability robust z-score	caspase robust z-score
ING5 (inhibitor of growth family member 5)	no change	no change	-0.46	0.06
CCDC70 (coiled-coil domain containing 70)	no change	no change	0.55	1.3
